Results are given in words; binding and its absence hold for the method and conditions named. Binding seen in cells or lysates may run through a third protein. These calls come from enrichment with a bait or labelling near it, and not all partners need be listed.
biological target: Biotinylated BambL (BambL-biotin) (UniProt Q0B4G1); assay: affinity purification with mass spectrometry; only the target purified

Amino acid sequences for entries named in this document (tags omitted). A change or cut given only in a name is not applied to a line headed by its entry. Residues count along the entry.
UniProt Q0B4G1: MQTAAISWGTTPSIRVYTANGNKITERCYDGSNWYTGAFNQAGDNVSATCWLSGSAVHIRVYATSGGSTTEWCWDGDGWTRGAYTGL
UniProt P40259, residues 29-229: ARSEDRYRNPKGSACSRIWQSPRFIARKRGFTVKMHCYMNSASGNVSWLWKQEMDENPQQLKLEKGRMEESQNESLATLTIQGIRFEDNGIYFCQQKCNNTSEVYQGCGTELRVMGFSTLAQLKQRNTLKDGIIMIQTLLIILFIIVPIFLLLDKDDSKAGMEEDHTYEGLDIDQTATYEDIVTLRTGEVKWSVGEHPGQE
UniProt P06213, residues 28-1382: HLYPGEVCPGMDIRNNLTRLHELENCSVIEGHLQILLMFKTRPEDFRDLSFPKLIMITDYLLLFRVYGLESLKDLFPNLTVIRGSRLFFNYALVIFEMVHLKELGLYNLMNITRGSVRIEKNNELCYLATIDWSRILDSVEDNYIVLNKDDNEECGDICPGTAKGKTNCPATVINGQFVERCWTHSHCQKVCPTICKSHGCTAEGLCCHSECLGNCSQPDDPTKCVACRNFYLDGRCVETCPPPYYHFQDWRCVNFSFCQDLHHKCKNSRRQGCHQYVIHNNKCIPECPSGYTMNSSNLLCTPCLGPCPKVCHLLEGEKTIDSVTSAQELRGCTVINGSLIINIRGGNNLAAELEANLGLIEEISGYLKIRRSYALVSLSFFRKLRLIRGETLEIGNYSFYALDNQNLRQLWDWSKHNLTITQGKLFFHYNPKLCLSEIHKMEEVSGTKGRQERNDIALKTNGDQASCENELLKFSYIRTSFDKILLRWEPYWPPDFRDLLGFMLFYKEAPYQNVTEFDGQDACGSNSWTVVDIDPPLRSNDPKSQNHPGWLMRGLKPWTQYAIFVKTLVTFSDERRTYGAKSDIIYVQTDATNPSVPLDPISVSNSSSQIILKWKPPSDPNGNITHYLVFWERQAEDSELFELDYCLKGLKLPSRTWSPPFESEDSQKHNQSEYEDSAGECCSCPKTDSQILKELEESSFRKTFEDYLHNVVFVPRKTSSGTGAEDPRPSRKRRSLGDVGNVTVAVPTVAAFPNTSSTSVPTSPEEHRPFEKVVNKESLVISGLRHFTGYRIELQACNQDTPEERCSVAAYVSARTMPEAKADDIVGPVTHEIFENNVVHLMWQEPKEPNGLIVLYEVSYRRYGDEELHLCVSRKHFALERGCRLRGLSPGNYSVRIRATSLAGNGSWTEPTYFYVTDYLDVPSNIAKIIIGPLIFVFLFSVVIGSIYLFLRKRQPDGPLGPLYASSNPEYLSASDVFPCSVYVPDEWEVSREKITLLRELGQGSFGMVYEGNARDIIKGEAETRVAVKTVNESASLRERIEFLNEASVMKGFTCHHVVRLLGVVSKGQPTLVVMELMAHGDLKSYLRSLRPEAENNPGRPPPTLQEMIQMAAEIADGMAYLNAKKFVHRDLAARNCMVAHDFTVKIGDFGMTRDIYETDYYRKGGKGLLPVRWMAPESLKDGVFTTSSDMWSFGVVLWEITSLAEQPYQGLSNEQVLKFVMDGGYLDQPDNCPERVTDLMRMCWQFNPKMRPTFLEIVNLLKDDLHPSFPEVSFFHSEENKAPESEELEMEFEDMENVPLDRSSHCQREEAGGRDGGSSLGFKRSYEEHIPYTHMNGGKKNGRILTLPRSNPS
UniProt P20273, residues 20-847: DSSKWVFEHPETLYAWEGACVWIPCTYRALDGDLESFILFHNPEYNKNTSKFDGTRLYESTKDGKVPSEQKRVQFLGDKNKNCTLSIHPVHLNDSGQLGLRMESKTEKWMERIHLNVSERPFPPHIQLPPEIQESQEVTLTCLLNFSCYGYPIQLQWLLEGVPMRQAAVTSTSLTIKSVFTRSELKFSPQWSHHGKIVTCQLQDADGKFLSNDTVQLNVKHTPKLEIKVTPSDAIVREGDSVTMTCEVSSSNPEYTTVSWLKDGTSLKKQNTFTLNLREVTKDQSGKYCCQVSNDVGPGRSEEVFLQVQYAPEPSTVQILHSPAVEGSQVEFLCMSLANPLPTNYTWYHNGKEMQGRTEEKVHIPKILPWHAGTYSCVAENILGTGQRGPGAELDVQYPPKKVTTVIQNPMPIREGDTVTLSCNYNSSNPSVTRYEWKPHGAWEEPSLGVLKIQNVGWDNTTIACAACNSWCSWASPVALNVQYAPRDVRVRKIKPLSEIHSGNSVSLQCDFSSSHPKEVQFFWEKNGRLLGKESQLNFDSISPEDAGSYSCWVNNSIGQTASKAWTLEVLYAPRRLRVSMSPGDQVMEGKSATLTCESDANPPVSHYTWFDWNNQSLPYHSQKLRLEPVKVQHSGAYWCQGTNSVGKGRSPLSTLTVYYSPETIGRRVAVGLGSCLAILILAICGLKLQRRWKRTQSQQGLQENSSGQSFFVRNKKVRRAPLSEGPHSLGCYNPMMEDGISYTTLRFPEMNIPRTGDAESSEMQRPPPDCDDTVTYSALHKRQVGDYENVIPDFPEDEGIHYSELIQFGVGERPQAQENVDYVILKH
UniProt P08575, residues 26-1306: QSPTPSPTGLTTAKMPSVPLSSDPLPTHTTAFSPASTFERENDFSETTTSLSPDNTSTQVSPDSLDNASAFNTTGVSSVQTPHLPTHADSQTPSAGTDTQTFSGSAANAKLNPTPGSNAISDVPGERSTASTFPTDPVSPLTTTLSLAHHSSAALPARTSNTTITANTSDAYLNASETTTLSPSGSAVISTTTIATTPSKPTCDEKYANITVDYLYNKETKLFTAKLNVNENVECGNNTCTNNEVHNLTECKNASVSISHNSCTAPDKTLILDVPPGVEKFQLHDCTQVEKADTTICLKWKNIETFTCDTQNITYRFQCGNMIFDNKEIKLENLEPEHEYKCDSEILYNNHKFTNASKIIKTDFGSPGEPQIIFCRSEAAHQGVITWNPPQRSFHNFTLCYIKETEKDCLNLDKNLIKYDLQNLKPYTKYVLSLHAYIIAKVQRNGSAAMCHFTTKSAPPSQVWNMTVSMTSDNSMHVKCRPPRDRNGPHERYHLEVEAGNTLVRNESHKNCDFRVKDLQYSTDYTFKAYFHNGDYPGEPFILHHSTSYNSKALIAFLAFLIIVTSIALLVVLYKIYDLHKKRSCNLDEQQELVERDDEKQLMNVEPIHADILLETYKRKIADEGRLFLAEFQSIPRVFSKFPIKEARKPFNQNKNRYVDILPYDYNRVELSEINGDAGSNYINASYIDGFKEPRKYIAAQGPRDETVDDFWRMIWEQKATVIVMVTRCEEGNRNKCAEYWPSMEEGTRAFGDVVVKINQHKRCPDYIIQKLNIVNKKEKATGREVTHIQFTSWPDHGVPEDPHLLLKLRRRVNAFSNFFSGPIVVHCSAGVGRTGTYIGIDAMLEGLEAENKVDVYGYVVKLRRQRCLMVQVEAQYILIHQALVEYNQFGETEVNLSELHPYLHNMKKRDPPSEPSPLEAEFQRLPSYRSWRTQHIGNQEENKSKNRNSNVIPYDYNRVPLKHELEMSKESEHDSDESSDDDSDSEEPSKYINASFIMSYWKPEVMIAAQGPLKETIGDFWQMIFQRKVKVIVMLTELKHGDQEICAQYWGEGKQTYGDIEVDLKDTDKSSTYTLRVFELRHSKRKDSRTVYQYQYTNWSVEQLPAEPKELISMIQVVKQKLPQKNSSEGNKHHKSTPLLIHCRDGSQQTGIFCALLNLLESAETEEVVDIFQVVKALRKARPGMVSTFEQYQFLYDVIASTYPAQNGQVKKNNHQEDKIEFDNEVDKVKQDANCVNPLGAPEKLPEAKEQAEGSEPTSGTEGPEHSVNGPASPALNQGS
UniProt P25445, residues 26-335: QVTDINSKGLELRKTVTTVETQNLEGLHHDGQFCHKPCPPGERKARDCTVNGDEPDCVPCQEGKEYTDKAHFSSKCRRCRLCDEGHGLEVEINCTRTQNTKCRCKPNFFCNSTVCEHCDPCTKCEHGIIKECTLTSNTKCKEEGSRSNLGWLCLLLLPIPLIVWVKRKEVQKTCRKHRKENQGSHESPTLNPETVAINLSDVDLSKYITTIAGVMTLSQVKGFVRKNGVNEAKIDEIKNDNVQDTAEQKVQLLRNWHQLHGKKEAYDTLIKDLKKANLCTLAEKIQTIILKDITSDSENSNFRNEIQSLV
UniProt P15391, residues 20-556: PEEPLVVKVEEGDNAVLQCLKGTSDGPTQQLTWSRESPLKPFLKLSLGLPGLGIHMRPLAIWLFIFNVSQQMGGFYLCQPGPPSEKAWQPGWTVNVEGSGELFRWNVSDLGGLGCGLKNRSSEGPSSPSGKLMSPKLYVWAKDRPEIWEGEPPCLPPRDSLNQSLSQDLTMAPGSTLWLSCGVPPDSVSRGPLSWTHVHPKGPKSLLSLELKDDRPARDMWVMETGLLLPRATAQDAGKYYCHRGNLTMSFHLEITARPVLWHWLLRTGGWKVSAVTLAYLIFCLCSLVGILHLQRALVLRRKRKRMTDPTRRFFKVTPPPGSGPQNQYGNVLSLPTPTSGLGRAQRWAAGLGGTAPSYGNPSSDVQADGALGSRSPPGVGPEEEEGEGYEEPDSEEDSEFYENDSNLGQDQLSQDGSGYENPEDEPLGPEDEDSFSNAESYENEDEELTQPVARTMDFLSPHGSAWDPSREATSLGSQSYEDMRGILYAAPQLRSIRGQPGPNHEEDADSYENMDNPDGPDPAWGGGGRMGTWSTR

Substance | binding
Igβ (CD79b) (from UniProt P40259 29-229) (receptor) | binds
insulin receptor (from UniProt P06213 28-1382) | binds
CD22 (Siglec-2) (from UniProt P20273 20-847) (receptor) | binds
CD45 (B220, PTPRC) (from UniProt P08575 26-1306) (receptor) | binds
death receptor FAS-R (CD95, APO-1) (from UniProt P25445 26-335) | binds
CD19 (from UniProt P15391 20-556) (receptor) | binds

Source: paper PMC8629787
